# From paper PMC4159138, “Fission Yeast Pxd1 Promotes Proper DNA Repair by Activating Rad16^XPF and Inhibiting Dna2” (PLoS Biology, 2014)
# Construct, isoform or probe ends are uncertain for at least one entry. For some of these results: No signal at the amounts used counts as a negative. For some of these results: The comparison behind a weaker result is the experiment's own reference, which may not be listed here.
# How the values were obtained:
# Assay in all cases: EMSA
# [1] = tested on: Dna2 + Cdc24-YFH + Pxd1(227-351)-5A; conditions: 1 mM EDTA, no RPA, much weaker ability to shift the Dna2-Cdc24-DNA complex; 50 mM Tris-HCl pH 7.5, 1 mM EDTA, 1 mM DTT, 0.1 mg/ml BSA, 50 mM NaCl, 5% glycerol, 15 fmol DNA in 10 µl, room temperature 30 min; 5% PAGE in 1x TBE; native protein; label: 5' 32P on oligo461
# [2] = tested on: Dna2 + Cdc24-YFH + Pxd1(227-351); conditions: 1 mM EDTA, no RPA, complex migrates faster than Dna2-Cdc24-DNA; 50 mM Tris-HCl pH 7.5, 1 mM EDTA, 1 mM DTT, 0.1 mg/ml BSA, 50 mM NaCl, 5% glycerol, 15 fmol DNA in 10 µl, room temperature 30 min; 5% PAGE in 1x TBE; native protein; label: 5' 32P on oligo461
# [3] = tested on: Pxd1(227-351) (Schizosaccharomyces pombe); conditions: 1 mM EDTA, 500 ng Pxd1 alone; 50 mM Tris-HCl pH 7.5, 1 mM EDTA, 1 mM DTT, 0.1 mg/ml BSA, 50 mM NaCl, 5% glycerol, 15 fmol DNA in 10 µl, room temperature 30 min; 5% PAGE in 1x TBE; recombinant protein; label: 5' 32P on oligo461
# [4] = tested on: Dna2 + Cdc24-YFH + RPA; conditions: 1 mM EDTA, with Pxd1(227-351): higher-order complex disrupted, DNA appears bound by RPA only; 50 mM Tris-HCl pH 7.5, 1 mM EDTA, 1 mM DTT, 0.1 mg/ml BSA, 50 mM NaCl, 5% glycerol, 15 fmol DNA in 10 µl, room temperature 30 min; 5% PAGE in 1x TBE; native protein; label: 5' 32P on oligo461
sequence,measurement,setting,value
CACGCTACCGAATTCTGACTTGCTAGGACATCTTTGCCCACGTTGACCC / GGGTCAACGTGGGCAAAG [5' overhang DNA (oligo461/oligo463)],binding result,[1],binds more weakly
same,binding result,[2],binds
same,binding result,[3],no binding
same,binding result,[4],binds more weakly
